Measurements as given in article PMC11706498.
No constants are given. Whether binding was seen depends on the method and setting. In cells and extracts the contact can be indirect. Some results given as binding are weak or reduced against the parent protein; the word gives no strength.

By UniProt entry, the sequences of proteins in these tests, tags left out.
UniProt Q5AKU6: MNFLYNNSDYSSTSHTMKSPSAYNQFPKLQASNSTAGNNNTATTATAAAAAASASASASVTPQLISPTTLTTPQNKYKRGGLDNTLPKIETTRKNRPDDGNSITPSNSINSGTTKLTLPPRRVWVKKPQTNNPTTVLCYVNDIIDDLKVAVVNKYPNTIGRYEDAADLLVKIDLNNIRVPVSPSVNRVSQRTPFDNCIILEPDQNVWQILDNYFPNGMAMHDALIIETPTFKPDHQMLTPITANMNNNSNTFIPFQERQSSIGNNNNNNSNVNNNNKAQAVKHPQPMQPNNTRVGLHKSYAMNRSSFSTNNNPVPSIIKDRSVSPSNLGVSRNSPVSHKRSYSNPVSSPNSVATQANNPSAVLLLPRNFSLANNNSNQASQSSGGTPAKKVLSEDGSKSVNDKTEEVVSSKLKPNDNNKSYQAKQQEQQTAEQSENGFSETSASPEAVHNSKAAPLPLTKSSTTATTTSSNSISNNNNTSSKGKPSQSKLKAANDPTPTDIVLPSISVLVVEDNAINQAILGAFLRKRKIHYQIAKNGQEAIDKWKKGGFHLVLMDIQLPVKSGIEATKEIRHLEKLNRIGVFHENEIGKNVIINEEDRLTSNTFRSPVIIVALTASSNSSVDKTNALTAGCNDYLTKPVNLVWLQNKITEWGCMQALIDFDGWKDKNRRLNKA
UniProt A0A1D8PKE2: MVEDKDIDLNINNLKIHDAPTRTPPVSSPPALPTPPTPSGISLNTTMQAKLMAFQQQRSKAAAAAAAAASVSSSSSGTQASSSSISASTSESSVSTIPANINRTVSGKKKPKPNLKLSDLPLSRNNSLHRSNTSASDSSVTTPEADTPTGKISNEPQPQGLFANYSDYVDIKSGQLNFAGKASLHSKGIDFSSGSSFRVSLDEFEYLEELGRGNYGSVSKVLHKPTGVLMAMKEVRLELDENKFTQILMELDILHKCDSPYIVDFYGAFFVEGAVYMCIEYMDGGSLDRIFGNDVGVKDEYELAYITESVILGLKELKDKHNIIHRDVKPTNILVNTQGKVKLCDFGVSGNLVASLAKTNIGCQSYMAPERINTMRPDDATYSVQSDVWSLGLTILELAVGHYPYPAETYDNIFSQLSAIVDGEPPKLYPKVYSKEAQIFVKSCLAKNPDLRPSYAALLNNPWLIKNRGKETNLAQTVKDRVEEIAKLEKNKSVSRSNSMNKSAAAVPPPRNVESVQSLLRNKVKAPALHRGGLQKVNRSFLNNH

What was measured:
[1] = target: Ssk1-6His-myc (Ssk1 response regulator tagged with 6His-2myc) (C. albicans) (UniProt Q5AKU6); assay: co-IP; Ssk1-6His-myc precipitated with anti-myc agarose from extracts of cells expressing Ssk2-HA and Ssk1-6His-myc (JC2262); Ssk2-HA detected by anti-HA blot; cells unstressed or exposed to high salt, oxidative or low salt stress
[2] = target: Ssk1-6His-myc (Ssk1 response regulator tagged with 6His-2myc) (C. albicans) (UniProt Q5AKU6); assay: co-IP; Ssk1-6His-myc precipitated with anti-myc agarose from extracts of cells expressing Pbs2-HA and Ssk1-6His-myc (JC2643); Pbs2-HA detected by anti-HA blot; unstressed cells

| Substance | binding [1] | binding [2] |
| --- | --- | --- |
| Ssk2-HA (Ssk2 MAPKKK with a triple HA epitope tag) (from UniProt A0A1D8PM87 1-1483) (enzyme) | binds |  |
| Pbs2-HA (Pbs2 MAPKK with a triple HA epitope tag) (from UniProt A0A1D8PKE2 1-545) (enzyme) |  | no binding |
